From the supplement of paper PMC10735217 come the findings set out here.

Counter-ions that a name gives are not always drawn. The list shows a part of the results. This data set is noisy: repeats of one test often differ as much as different tests do.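 The human kidney-derived cells carry a stably integrated construct of eight TEAD-binding elements driving luciferase, read by luminescence in a drug-repurposing library screen. A compound counts as a hit when its signal is more than five robust Z scores above the plate mean.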

The subject of this assay is HEK293A TEAD-LUC reporter. The experiment in a line: TEAD-luciferase reporter activity (YAP activation), robust Z score vs plate; higher = stronger YAP/TEAD activation. The settings on record: 24 h.

Consider `CC(=O)OC1CC[C@H]2[C@@H]3CC[C@H]4C/C(=N/Oc5ccc([N+](=O)[O-])cc5)C(Cl)C[C@]4(C)[C@H]3CC[C@]12C` (stereo partly drawn), for which the TEAD-luciferase reporter activity by setting is: (compound concentration: 200 nM) inactive: -0.252; (compound concentration: 2 uM) inactive: 3.87; (compound concentration: 10 uM) inactive: 0.535.

Turning to `CN1C(=O)C(O)N=C(c2ccccc2Cl)c2cc(Cl)ccc21` (stereo not drawn) [Lormetazepam], the TEAD-luciferase reporter activity reads like this: (compound concentration: 200 nM) inactive: -0.56; (compound concentration: 2 uM) inactive: -0.579; (compound concentration: 10 uM) inactive: -0.882.

For `CCN1CCN(/C=C2\N=C3CN=C(c4ccccc4Cl)c4cc([N+](=O)[O-])ccc4N3C2=O)CC1`, the TEAD-luciferase reporter activity (compound concentration: 200 nM) was inactive: -0.99, the TEAD-luciferase reporter activity (compound concentration: 2 uM) was inactive: 0.746 and the TEAD-luciferase reporter activity (compound concentration: 10 uM) was inactive: 1.93.

With `COc1ccc(/C=C\c2cc(OC)c(OC)c(OC)c2)cc1N`, the TEAD-luciferase reporter activity is, setting by setting: (compound concentration: 200 nM) active: 9.65; (compound concentration: 2 uM) inactive: 0.26; (compound concentration: 10 uM) active: 6.39.

For `O=C(C1CCCN1C(=O)c1cccc(Cl)c1)N1CCC(N2Cc3ccccc3C2=O)CC1` (stereo not drawn), the TEAD-luciferase reporter activity by setting is: (compound concentration: 200 nM) inactive: -0.353; (compound concentration: 10 uM) inactive: 1.22.

As to `COC(=O)CNC(=O)C(C)(C)NC(=O)c1cc2c(n(CC3CCCCC3)c1=O)CCCCCC2`, the TEAD-luciferase reporter activity is inactive: 1.04 (compound concentration: 200 nM), inactive: 0.213 (compound concentration: 2 uM) and inactive: -0.703 (compound concentration: 10 uM).

As for `CCNC(=O)c1nc(CN(C)C)n(-c2ccc(Cl)cc2C(=O)c2ccccc2Cl)n1`, the TEAD-luciferase reporter activity is inactive: -0.271 (compound concentration: 200 nM), inactive: 3.97 (compound concentration: 2 uM) and inactive: 4.2 (compound concentration: 10 uM).

As for `CN1C[C@H](CNC(=O)OCc2ccccc2)C[C@@H]2c3cccc4c3c(cn4C)C[C@H]21` [Metergoline], the TEAD-luciferase reporter activity by setting is: (compound concentration: 200 nM) inactive: 0.136; (compound concentration: 10 uM) inactive: 0.026.

Take `CN1C[C@H](CNC(=O)OCc2ccccc2)C[C@@H]2c3cccc4c3c(cn4C)C[C@H]21` [metergoline]: the TEAD-luciferase reporter activity (compound concentration: 2 uM) is inactive: -0.435.

In the case of `O=C1CN=C(c2cc([N+](=O)[O-])ccc2Cl)c2cc([N+](=O)[O-])ccc2N1`, the TEAD-luciferase reporter activity by setting is: (compound concentration: 200 nM) inactive: -0.887; (compound concentration: 2 uM) inactive: -0.585; (compound concentration: 10 uM) inactive: 1.8.

In the case of `OCCOc1ccccc1`, the TEAD-luciferase reporter activity (compound concentration: 200 nM) was inactive: -0.449, the TEAD-luciferase reporter activity (compound concentration: 2 uM) is inactive: -1.47 and the TEAD-luciferase reporter activity (compound concentration: 10 uM) was inactive: -1.09.

With `O=C1CN=C(c2ccc(F)cc2)c2cc(Cl)ccc2N1`, the TEAD-luciferase reporter activity is inactive: -0.27 (compound concentration: 200 nM), inactive: -2.22 (compound concentration: 2 uM) and inactive: 0.472 (compound concentration: 10 uM).

Take `N=C1NC(=O)N2CC12` (stereo not drawn): where the note is “compound concentration: 2 uM”, the TEAD-luciferase reporter activity is inactive: -1.45.

Take `N=C1NC(=O)N2CC12` (stereo not drawn) [Imexon]: the TEAD-luciferase reporter activity (compound concentration: 200 nM) is inactive: 1.54 and the TEAD-luciferase reporter activity (compound concentration: 10 uM) was inactive: 1.02.

For the compound `Cn1cc2c(NC3=NCCN3)cccc2n1`, the TEAD-luciferase reporter activity reads like this: (compound concentration: 200 nM) inactive: -0.507; (compound concentration: 2 uM) inactive: 0.435; (compound concentration: 10 uM) inactive: 0.608.

As to `C=CCC(N)Cc1ccccc1` (stereo not drawn), the TEAD-luciferase reporter activity by setting is: (compound concentration: 200 nM) inactive: 0.34; (compound concentration: 2 uM) inactive: -2; (compound concentration: 10 uM) inactive: -2.01.

As to `O=C1CCC(=O)N1C[C@H]1CC[C@H]2CN(c3ncccn3)CCN2C1` [Sunepitron hydrochloride], the TEAD-luciferase reporter activity (compound concentration: 200 nM) is inactive: -1.58, the TEAD-luciferase reporter activity (compound concentration: 2 uM) is inactive: 4.66 and the TEAD-luciferase reporter activity (compound concentration: 10 uM) is inactive: 2.73.

As for `C[C@@]1(O)[C@H](O)[C@@H](CO)O[C@H]1n1ccc2c(N)ncnc21`, the TEAD-luciferase reporter activity by setting is: (compound concentration: 200 nM) inactive: -0.794; (compound concentration: 2 uM) inactive: -0.011; (compound concentration: 10 uM) inactive: 0.0534.

Turning to `CC[C@H]1C[C@H]2C[C@H]3c4[nH]c5ccccc5c4CCN(C2)C13` [Ibogamine], the TEAD-luciferase reporter activity was inactive: -0.326 (compound concentration: 200 nM), inactive: -1.3 (compound concentration: 2 uM) and inactive: 2.43 (compound concentration: 10 uM).

Regarding `C[C@]12CC[C@H]3[C@@H](CCC4=CC(=O)C=C[C@@]43C)[C@@H]1CC[C@@H]2OC1=CCCC1`, the TEAD-luciferase reporter activity (compound concentration: 200 nM) is inactive: -0.379, the TEAD-luciferase reporter activity (compound concentration: 2 uM) was inactive: 1.07 and the TEAD-luciferase reporter activity (compound concentration: 10 uM) is inactive: 1.61.

For `Fc1ccccc1C1=NCC(=S)N(CC(F)(F)F)c2ccc(Cl)cc21` [Quazepam CIV], the TEAD-luciferase reporter activity is inactive: 0.0555 (compound concentration: 200 nM) and inactive: 0.0455 (compound concentration: 10 uM).

As to `O=C(O[C@H]1C[N+]2(CCCOc3ccccc3)CCC1CC2)C(O)(c1cccs1)c1cccs1` [aclidinium bromide], the TEAD-luciferase reporter activity (compound concentration: 200 nM) is inactive: 0.202, the TEAD-luciferase reporter activity (compound concentration: 2 uM) is inactive: -1.29 and the TEAD-luciferase reporter activity (compound concentration: 10 uM) was inactive: -0.932.

On to `CC(C)c1cccc(C(C)C)c1O`, for which the TEAD-luciferase reporter activity is, setting by setting: (compound concentration: 200 nM) inactive: 0.152; (compound concentration: 10 uM) inactive: 1.89.

Consider `CC(C)c1cccc(C(C)C)c1O` [propofol phosphate], for which, for the setting “compound concentration: 2 uM”, the TEAD-luciferase reporter activity was inactive: -1.33.

Take `C[N+]1(C)CCCC(OC(=O)C(O)(c2ccccc2)c2ccccc2)C1` (stereo not drawn) [Mepenzolate]: the TEAD-luciferase reporter activity was inactive: -1.03 (compound concentration: 200 nM), inactive: 3.18 (compound concentration: 2 uM) and inactive: 2.33 (compound concentration: 10 uM).

As for `C=CCN1CC[C@]23c4c5ccc(O)c4O[C@H]2C(=O)CC[C@@]3(O)C1C5` [Naloxon], the TEAD-luciferase reporter activity was inactive: -0.397 (compound concentration: 200 nM), inactive: -1.85 (compound concentration: 2 uM) and inactive: -1.15 (compound concentration: 10 uM).

As for `CN1C[C@H](CO)C[C@@H]2c3cccc4[nH]cc(c34)C[C@H]21`, the TEAD-luciferase reporter activity is inactive: -1.01 (compound concentration: 200 nM), inactive: 0.168 (compound concentration: 2 uM) and inactive: 0.856 (compound concentration: 10 uM).

Take `C[C@H](CS(C)(=O)=O)n1ccc2c(C(F)(F)F)c(C#N)ccc21`: the TEAD-luciferase reporter activity (compound concentration: 200 nM) is inactive: -0.953, the TEAD-luciferase reporter activity (compound concentration: 2 uM) is inactive: 1.82 and the TEAD-luciferase reporter activity (compound concentration: 10 uM) is inactive: 0.237.
